# Data taken from the supplement of paper PMC10849652.
# By UniProt entry, the sequences of proteins in these tests, tags left out. Where a name states a change or a piece, a line headed by the entry shows the natural chain unless it says otherwise.
# UniProt Q15642: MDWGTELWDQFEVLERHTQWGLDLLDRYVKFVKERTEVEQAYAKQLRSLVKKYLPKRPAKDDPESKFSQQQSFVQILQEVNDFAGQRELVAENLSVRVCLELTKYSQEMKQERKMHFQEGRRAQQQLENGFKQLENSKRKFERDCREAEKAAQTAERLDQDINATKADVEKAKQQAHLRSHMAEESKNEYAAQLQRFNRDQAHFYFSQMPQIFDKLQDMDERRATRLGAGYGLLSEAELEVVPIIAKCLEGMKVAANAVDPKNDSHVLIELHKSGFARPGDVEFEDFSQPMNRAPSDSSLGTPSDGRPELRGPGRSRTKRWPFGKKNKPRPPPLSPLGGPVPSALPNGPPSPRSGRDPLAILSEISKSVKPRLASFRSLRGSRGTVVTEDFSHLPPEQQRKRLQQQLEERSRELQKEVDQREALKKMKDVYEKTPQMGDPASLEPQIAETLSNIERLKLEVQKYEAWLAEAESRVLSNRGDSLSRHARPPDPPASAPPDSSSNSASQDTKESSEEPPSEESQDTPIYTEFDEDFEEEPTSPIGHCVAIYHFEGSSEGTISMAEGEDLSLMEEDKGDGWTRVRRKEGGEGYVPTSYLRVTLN
# UniProt Q8NCE0: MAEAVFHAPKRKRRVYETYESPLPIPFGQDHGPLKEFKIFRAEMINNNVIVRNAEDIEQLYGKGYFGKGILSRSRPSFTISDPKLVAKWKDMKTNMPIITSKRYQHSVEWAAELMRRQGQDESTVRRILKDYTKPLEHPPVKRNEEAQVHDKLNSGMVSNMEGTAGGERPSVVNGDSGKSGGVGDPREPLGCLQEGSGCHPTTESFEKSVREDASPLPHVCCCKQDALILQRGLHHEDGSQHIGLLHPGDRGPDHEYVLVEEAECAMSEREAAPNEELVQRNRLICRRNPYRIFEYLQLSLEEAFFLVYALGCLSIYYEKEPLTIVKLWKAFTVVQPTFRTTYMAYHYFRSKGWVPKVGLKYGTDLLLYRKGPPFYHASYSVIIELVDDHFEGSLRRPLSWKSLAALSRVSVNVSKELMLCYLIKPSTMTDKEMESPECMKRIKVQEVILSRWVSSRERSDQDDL
# UniProt Q12888: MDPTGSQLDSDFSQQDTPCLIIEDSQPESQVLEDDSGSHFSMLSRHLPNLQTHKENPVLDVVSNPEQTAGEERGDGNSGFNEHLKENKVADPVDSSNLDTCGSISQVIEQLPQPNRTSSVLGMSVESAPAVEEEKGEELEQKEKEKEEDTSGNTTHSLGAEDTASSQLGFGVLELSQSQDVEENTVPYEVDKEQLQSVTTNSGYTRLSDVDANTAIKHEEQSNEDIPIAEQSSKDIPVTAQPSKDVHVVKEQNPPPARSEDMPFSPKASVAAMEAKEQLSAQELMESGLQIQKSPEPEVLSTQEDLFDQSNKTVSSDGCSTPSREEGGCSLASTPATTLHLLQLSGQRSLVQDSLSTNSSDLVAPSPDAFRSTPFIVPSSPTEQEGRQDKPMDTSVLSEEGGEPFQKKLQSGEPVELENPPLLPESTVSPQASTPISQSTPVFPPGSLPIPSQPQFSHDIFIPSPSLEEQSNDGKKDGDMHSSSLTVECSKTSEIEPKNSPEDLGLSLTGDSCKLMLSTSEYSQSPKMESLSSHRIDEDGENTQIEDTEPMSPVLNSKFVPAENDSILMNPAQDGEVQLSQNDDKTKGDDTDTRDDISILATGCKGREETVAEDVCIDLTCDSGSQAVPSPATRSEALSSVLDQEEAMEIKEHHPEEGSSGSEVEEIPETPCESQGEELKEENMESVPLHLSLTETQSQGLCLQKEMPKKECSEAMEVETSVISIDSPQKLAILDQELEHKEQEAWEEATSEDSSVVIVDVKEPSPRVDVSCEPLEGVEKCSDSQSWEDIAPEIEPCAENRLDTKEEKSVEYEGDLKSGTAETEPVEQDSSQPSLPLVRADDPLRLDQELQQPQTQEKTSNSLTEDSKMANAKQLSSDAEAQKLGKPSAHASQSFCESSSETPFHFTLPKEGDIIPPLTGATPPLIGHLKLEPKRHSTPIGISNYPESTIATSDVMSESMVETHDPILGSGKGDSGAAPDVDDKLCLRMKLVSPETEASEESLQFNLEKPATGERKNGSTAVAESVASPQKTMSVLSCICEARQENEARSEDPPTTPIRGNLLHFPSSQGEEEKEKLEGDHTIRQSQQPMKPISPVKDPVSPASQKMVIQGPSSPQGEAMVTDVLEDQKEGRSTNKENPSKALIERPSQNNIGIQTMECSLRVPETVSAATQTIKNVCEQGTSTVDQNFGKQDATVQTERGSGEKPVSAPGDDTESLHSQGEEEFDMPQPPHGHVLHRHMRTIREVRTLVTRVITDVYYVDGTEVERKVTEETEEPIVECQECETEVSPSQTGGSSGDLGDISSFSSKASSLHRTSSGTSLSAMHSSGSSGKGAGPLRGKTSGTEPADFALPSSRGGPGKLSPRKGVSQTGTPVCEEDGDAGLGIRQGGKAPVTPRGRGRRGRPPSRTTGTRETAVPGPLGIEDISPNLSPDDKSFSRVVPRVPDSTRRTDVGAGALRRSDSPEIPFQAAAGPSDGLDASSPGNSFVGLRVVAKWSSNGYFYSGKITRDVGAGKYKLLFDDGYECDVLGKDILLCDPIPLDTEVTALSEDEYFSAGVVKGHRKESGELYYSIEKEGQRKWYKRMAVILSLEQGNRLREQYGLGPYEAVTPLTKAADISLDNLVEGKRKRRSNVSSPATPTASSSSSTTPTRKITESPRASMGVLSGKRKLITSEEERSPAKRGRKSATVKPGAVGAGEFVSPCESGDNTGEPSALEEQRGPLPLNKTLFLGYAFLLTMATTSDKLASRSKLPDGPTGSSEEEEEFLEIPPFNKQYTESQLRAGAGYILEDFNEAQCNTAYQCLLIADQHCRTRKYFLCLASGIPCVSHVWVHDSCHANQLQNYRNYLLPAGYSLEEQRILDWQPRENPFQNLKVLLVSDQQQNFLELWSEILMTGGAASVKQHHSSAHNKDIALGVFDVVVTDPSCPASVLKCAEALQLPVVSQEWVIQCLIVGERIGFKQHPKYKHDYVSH
# UniProt Q9BSV6: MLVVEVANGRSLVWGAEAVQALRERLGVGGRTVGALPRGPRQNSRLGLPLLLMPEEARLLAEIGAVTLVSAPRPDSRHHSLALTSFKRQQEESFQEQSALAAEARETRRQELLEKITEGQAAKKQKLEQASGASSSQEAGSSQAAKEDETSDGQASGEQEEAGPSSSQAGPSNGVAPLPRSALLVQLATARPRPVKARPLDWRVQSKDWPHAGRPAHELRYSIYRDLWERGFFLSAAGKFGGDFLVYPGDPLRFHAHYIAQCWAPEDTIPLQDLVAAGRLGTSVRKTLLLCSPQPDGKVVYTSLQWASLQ
# UniProt O75674: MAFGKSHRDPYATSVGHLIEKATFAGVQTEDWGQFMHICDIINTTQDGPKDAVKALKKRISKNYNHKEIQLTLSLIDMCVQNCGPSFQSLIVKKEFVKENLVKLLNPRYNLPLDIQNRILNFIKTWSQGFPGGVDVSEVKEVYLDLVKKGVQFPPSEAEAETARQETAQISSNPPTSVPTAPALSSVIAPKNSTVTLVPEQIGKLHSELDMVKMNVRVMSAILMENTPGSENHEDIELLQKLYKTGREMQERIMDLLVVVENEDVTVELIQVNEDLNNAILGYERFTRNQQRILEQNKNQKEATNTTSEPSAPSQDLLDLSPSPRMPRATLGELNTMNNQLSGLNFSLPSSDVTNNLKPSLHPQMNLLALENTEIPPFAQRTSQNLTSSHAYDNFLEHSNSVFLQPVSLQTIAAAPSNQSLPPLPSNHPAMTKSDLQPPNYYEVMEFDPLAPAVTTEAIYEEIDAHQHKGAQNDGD
# UniProt Q9Y296, whole entry, looked up: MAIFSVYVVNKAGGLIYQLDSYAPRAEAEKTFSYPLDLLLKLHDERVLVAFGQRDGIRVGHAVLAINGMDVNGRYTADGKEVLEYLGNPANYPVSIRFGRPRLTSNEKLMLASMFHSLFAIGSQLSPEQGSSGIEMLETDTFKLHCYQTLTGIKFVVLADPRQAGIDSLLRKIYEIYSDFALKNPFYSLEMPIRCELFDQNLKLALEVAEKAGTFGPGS
# UniProt Q9UL33, whole entry, looked up: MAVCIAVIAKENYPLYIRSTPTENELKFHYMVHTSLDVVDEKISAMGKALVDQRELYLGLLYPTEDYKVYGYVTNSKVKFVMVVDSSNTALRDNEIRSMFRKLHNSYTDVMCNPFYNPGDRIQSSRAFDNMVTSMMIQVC
# UniProt P06753, whole entry, looked up: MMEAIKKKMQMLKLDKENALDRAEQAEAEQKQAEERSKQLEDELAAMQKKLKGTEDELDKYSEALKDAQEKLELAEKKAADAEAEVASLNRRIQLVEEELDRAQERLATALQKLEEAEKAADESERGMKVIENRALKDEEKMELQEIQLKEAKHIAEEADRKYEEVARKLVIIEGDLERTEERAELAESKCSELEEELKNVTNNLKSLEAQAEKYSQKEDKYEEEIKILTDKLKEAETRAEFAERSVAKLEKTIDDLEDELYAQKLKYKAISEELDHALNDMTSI
# UniProt P07951, whole entry, looked up: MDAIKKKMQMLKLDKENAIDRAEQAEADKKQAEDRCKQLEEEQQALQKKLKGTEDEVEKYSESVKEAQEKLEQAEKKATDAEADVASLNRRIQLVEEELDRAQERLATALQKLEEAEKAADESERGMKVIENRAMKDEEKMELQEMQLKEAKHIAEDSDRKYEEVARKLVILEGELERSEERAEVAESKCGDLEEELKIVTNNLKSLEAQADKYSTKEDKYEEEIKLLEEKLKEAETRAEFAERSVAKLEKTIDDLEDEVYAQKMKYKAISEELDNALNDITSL
# UniProt Q9Y5L0: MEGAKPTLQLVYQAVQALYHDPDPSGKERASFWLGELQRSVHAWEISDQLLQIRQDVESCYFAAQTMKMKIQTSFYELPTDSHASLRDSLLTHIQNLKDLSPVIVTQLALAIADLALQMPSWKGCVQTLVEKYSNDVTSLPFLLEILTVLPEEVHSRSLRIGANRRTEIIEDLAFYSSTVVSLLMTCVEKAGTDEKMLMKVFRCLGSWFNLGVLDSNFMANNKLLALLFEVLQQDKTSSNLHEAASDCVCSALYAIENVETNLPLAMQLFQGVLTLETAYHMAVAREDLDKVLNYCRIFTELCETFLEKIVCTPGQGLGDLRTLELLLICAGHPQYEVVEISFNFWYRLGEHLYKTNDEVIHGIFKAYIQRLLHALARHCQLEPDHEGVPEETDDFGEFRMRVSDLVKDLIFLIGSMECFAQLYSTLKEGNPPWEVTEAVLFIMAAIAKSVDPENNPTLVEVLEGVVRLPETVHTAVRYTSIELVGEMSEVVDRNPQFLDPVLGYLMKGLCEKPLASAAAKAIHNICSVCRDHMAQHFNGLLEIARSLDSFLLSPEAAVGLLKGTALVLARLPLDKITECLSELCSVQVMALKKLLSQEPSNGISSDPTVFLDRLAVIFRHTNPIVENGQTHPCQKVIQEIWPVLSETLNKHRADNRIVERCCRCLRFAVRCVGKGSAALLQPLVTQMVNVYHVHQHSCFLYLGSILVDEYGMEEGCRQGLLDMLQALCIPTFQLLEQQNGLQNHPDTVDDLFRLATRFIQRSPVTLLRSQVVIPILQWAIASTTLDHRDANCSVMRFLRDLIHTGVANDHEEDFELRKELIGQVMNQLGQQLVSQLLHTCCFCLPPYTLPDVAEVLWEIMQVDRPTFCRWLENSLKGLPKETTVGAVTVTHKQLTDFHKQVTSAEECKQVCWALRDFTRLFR
# UniProt O95985: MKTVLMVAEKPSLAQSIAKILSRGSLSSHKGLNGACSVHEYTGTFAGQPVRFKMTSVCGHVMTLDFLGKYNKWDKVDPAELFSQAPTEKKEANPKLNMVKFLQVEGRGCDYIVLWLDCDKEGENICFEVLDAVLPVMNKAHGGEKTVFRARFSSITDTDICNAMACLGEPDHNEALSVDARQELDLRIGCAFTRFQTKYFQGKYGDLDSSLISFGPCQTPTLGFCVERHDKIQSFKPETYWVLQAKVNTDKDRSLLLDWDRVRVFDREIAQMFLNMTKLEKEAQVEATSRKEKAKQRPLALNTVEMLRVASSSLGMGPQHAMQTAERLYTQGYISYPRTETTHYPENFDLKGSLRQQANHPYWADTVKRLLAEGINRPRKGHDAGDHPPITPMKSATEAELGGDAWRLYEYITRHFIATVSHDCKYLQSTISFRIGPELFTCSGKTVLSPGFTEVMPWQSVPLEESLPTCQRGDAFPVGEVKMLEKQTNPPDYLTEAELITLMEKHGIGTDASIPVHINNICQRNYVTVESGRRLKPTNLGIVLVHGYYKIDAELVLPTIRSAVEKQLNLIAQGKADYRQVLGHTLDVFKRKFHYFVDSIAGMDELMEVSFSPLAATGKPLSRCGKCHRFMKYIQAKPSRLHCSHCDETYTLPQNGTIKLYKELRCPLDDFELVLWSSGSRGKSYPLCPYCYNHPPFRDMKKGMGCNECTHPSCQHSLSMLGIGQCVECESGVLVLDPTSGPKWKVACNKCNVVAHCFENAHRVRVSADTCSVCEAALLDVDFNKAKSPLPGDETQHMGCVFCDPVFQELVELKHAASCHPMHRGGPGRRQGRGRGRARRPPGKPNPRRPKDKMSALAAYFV
# This is one part of the list.
# Key:
# Test in all cases: log2 fold change, soluble protein after heating vs DMSO (PISA); higher = thermal stabilisation; K562 cells, 10 uM, 30 min; active = over 0.2 and 3.5 SD of the protein, either way, in both replicates (recomputed)
# [1] = compound: CC1=C(C=C(C=C1)NC(=O)C2=CC(=CC=C2)C(C)(C)C#N)NC3=CC4=C(C=C3)N=CN(C4=O)C
# How it was run: (§1)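 Soluble protein was quantified by TMTpro 16plex LC-MS/MS after channel sums were equalised. It was obtained as the supernatant after 21,000xg for 90 min from pooled aliquots of K562 cells (2×10^6 cells/mL, 10 μM compound, 30 min) heated for 3 min across 48°C-58°C and extracted in PBS with 0.5% NP-40 at 4°C. Thermal stability values are relative to control samples and come from duplicates. They are given as log2 fold changes.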
# [2] = compound: CC1=C(C=C(C=C1)NC(=O)C2=CC(=CC=C2)N(C)C)NC(=O)C3=CC=C(C=C3)O
# How it was run: as §1
# [3] = compound: CC1=CC=C(C=C1)SC2=C3C=C(SC3=CN=C2)C(=O)N
# How it was run: as §1
# [4] = compound: CC1=NC(=CC=C1)C2=C(N=C(N2)C(C)(C)C)C3=CC4=NC=CN=C4C=C3
# How it was run: as §1
# Nexturastat A = compound: CCCCN(Cc1ccc(C(=O)NO)cc1)C(=O)Nc1ccccc1 [Nexturastat A]
# How it was run: as §1
# vemurafenib = compound: CCCS(=O)(=O)Nc1ccc(F)c(C(=O)c2c[nH]c3ncc(-c4ccc(Cl)cc4)cc23)c1F [vemurafenib]
# How it was run: as §1
# [5] = compound: CCCS(=O)(=O)Nc1ccc(F)c(C(=O)c2c[nH]c3ncc(Cl)cc23)c1F
# How it was run: as §1
# [6] = compound: CCCc1cc(C)[nH]c(=O)c1CNC(=O)c1cc(-c2ccnc(N3CCN(C)CC3)c2)cc2c1cnn2C(C)C
# How it was run: as §1
# givinostat = compound: CCN(CC)Cc1ccc2cc(COC(=O)Nc3ccc(C(=O)NO)cc3)ccc2c1 [givinostat]
# How it was run: as §1
# barasertib = compound: CCN(CCCOc1ccc2c(Nc3cc(CC(=O)Nc4cccc(F)c4)[nH]n3)ncnc2c1)CCOP(=O)(O)O [barasertib]
# How it was run: as §1
# [7] = compound: CC[C@@H]1C(=O)N(C)c2cnc(Nc3ccc(C(=O)NC4CCN(C)CC4)cc3OC)nc2N1C1CCCC1
# How it was run: as §1
# volasertib = compound: CC[C@@H]1C(=O)N(C)c2cnc(Nc3ccc(C(=O)N[C@H]4CC[C@H](N5CCN(CC6CC6)CC5)CC4)cc3OC)nc2N1C(C)C [volasertib]
# How it was run: as §1
# [8] = compound: CC[C@H](C)N1C=C(C2=C(C=C(C=C21)C3=CN=C(C=C3)N4CCNCC4)C(=O)NCC5=C(C=C(NC5=O)C)C)C
# How it was run: as §1
# epoxomicin = compound: CC[C@H](C)[C@@H](C(=O)N[C@@H]([C@@H](C)O)C(=O)N[C@@H](CC(C)C)C(=O)[C@]1(CO1)C)NC(=O)[C@H]([C@@H](C)CC)N(C)C(=O)C [epoxomicin]
# How it was run: as §1
# [9] = compound: CCn1c(C(=O)N(C2CC2)C2CC2)cc2c3c(ncn3C)c(Nc3cc(C)n(C)n3)nc21
# How it was run: as §1
# [10] = compound: CCn1cc(-c2ccnc3[nH]c(-c4cccc(CN(C)C)c4)cc23)c(-c2ccc(NC(=O)N(C)C)cc2)n1
# How it was run: as §1
# [11] = compound: CN(C)CC(=O)Nc1ccc2[nH]c(=O)c3ccccc3c2c1
# How it was run: as §1
# rosiglitazone = compound: CN(CCOC1=CC=C(C=C1)C[C@H]2C(=O)NC(=O)S2)C3=CC=CC=N3 (racemic) [rosiglitazone]
# How it was run: as §1
# [12] = compound: CN1C2=C(C3=C1C(=O)N(N=C3)CC4=CC(=CC=C4)N)SC(=C2)S(=O)C
# How it was run: as §1
# [13] = compound: CN1CCC(CNc2ccc3ncc(-c4cccc(OC(F)(F)F)c4)n3n2)CC1
# How it was run: as §1
Target,log2 fold change [1],log2 fold change [2],log2 fold change [3],log2 fold change [4],log2 fold change (Nexturastat A),log2 fold change (vemurafenib),log2 fold change [5],log2 fold change [6],log2 fold change (givinostat),log2 fold change (barasertib),log2 fold change [7],log2 fold change (volasertib),log2 fold change [8],log2 fold change (epoxomicin),log2 fold change [9],log2 fold change [10],log2 fold change [11],log2 fold change (rosiglitazone),log2 fold change [12],log2 fold change [13]
TRAFD1 (UniProt O14545),inactive: 0.03,inactive: 0.037,inactive: 0.034,inactive: 0.01,inactive: 0.012,inactive: 0.014,inactive: 0.017,inactive: 0.023,inactive: -0.058,inactive: -0.028,inactive: -0.001,inactive: 0.032,inactive: -0.004,inactive: 0.041,inactive: 0.025,inactive: 0,inactive: -0.007,inactive: -0.027,inactive: -0.013,inactive: 0.067
TNPO1 (UniProt Q92973),inactive: 0.041,inactive: 0,inactive: 0.037,inactive: 0,inactive: -0.017,inactive: 0.015,inactive: 0.064,inactive: -0.009,inactive: 0.015,inactive: -0.005,inactive: -0.182,active: -0.379,inactive: 0.046,inactive: -0.016,,inactive: -0.025,inactive: 0.018,,inactive: -0.019,inactive: -0.055
TRIP10 (UniProt Q15642),inactive: 0.003,inactive: -0.026,inactive: -0.009,inactive: -0.045,inactive: 0.139,inactive: 0.08,inactive: 0.026,inactive: -0.012,inactive: -0.058,inactive: 0.015,inactive: -0.024,inactive: -0.11,inactive: 0.047,inactive: 0.034,,inactive: -0.051,inactive: 0.04,,inactive: -0.036,inactive: -0.056
TSEN2 (UniProt Q8NCE0),active: 0.306,inactive: 0.015,inactive: 0.014,inactive: -0.02,inactive: -0.013,inactive: 0.058,inactive: 0.063,inactive: 0.097,inactive: 0.012,inactive: 0.073,inactive: -0.019,inactive: -0.146,inactive: 0.053,inactive: 0.078,,inactive: -0.082,inactive: 0.086,,inactive: -0.04,inactive: 0.034
TPP1 (UniProt O14773),inactive: 0.006,inactive: 0.037,inactive: 0.02,inactive: 0.03,inactive: -0.007,inactive: -0.006,inactive: -0.021,inactive: 0,inactive: -0.015,inactive: -0.018,active: -0.647,active: -1.09,inactive: -0.002,inactive: 0.019,,inactive: -0.117,inactive: 0.007,,inactive: -0.001,active: -0.569
TP53BP1 isoform 2 (UniProt Q12888),inactive: -0.02,inactive: -0.032,inactive: 0,inactive: -0.022,inactive: 0.045,inactive: 0,inactive: 0.02,inactive: 0.056,inactive: 0.019,inactive: 0.022,inactive: -0.024,inactive: -0.072,inactive: 0.021,inactive: 0,,inactive: 0,inactive: 0.008,,inactive: 0.052,inactive: 0.025
TRIM28 (UniProt Q13263),inactive: 0.013,inactive: -0.049,inactive: 0.013,inactive: 0.041,inactive: -0.059,inactive: 0.078,inactive: 0.075,inactive: 0.012,inactive: 0.039,inactive: 0.04,inactive: -0.097,active: -0.222,inactive: 0.052,inactive: 0.077,,inactive: 0,inactive: 0.047,,inactive: -0.033,inactive: -0.033
TSEN34 (UniProt Q9BSV6),inactive: 0.013,inactive: 0.027,inactive: -0.015,inactive: 0.087,inactive: -0.006,inactive: -0.026,inactive: 0.028,inactive: -0.054,inactive: -0.027,inactive: 0.01,inactive: -0.005,inactive: -0.162,inactive: 0.094,inactive: 0.17,inactive: -0.055,,inactive: 0.204,inactive: 0.01,inactive: -0.144,
TOM1L1 (UniProt O75674),inactive: -0.101,inactive: 0.005,inactive: 0.057,inactive: 0.019,inactive: -0.038,inactive: 0.102,inactive: 0.015,inactive: -0.07,inactive: 0.024,inactive: 0.03,inactive: 0.072,inactive: -0.052,inactive: 0.027,inactive: 0.013,,inactive: -0.004,inactive: 0.043,,inactive: -0.053,active: 0.385
TOMM20 (UniProt Q15388),inactive: 0.058,inactive: 0.044,inactive: 0.04,inactive: -0.019,inactive: 0.019,inactive: -0.024,inactive: 0.092,inactive: 0.026,inactive: 0.011,inactive: 0.021,inactive: -0.135,inactive: -0.075,inactive: -0.068,inactive: -0.089,,inactive: -0.017,inactive: -0.005,,inactive: -0.033,active: -0.271
TRAPPC4 (UniProt Q9Y296),inactive: 0.001,inactive: 0.013,inactive: -0.029,inactive: -0.004,inactive: -0.06,inactive: -0.003,inactive: -0.033,inactive: -0.01,inactive: -0.027,inactive: 0.017,inactive: 0.015,inactive: -0.046,inactive: 0.02,inactive: 0.076,inactive: 0.017,inactive: 0.025,inactive: -0.003,inactive: 0.035,inactive: -0.022,inactive: -0.059
TRAPPC2L (UniProt Q9UL33),inactive: 0,inactive: -0.135,inactive: 0.133,inactive: 0.045,inactive: 0.003,inactive: 0.076,inactive: 0.11,inactive: 0.055,inactive: -0.123,inactive: 0.05,inactive: -0.109,inactive: -0.065,inactive: 0.008,inactive: 0.06,,inactive: -0.042,inactive: 0.128,,inactive: 0.007,inactive: 0.001
TPM3 isoform 2 (UniProt P06753),inactive: 0.016,inactive: -0.012,inactive: -0.09,inactive: 0.01,inactive: -0.03,inactive: -0.031,inactive: -0.06,inactive: -0.019,inactive: -0.105,inactive: 0.037,inactive: -0.052,inactive: 0.283,inactive: -0.073,inactive: 0.059,inactive: 0.005,inactive: -0.005,inactive: -0.005,inactive: -0.005,inactive: -0.018,inactive: 0.012
TPM2 (UniProt P07951),inactive: 0.048,inactive: -0.019,inactive: -0.047,inactive: 0.212,inactive: -0.138,inactive: 0.03,inactive: 0.001,inactive: 0.405,inactive: -0.011,inactive: 0.04,inactive: -0.07,inactive: 0.173,inactive: 0.069,inactive: 0.287,,inactive: -0.04,inactive: -0.057,,inactive: -0.023,inactive: 0.118
TNPO3 (UniProt Q9Y5L0),inactive: 0.028,inactive: 0.004,inactive: 0.057,inactive: 0.003,inactive: -0.036,inactive: 0.069,inactive: 0.08,inactive: 0.003,inactive: 0.029,inactive: 0.019,inactive: -0.182,active: -0.406,inactive: 0.039,inactive: 0.041,,inactive: -0.075,inactive: 0.041,,inactive: -0.036,inactive: -0.128
TRIP4 (UniProt Q15650),inactive: -0.013,inactive: -0.032,inactive: 0.034,inactive: -0.008,inactive: 0.147,inactive: 0.011,inactive: -0.037,inactive: 0.059,inactive: -0.002,inactive: 0.027,inactive: 0.025,inactive: -0.22,inactive: 0.059,inactive: -0.123,inactive: -0.019,inactive: -0.01,inactive: -0.009,inactive: 0.012,inactive: 0.032,inactive: -0.216
TOP3B (UniProt O95985),inactive: -0.009,inactive: -0.031,inactive: -0.015,inactive: -0.054,inactive: 0.272,inactive: -0.033,inactive: -0.051,inactive: 0.088,inactive: -0.014,inactive: -0.009,inactive: 0.08,inactive: 0.133,inactive: 0.024,inactive: -0.135,inactive: 0,inactive: 0.016,inactive: -0.031,inactive: -0.04,inactive: 0.184,inactive: 0.09

# Copied from the list.
# Entry of TOM1L1 (UniProt O75674) under log2 fold change (volasertib): inactive: -0.052
# Entry of TPM2 (UniProt P07951) under log2 fold change [6]: inactive: 0.405
